Solid state polarisation and liquid state polarisation data for three molecules are collected here from patent US20110038804A1, “MR IMAGING AGENT, IMAGING MEDIUM AND METHODS OF IMAGING WHEREIN SUCH AN IMAGING MEDIUM IS USED” (priority 2007, published 2011).

A short description of data set [1]: Solid state polarisation after dynamic nuclear polarisation, by solid state 13C-NMR. The settings on record: DNP at 1.2 K, 3.35 T, microwave 93.89 GHz, trityl radical and Gd-chelate. Format: physicochemical.
Data set [2] in a line: Liquid state polarisation after dissolution, by liquid state 13C-NMR at 400 MHz. It is filed as physicochemical.
Setting [3] is: salt polarised directly, 120 minutes DNP, dissolved in phosphate buffer pH 7.3, 50 mM.

In turn, `CC(C)CC(=O)[13C](=O)O.NC(CO)(CO)CO` [TRIS-^13C1-α-ketoisocaproate] registered a solid state polarisation in data set [1] of 36%. Besides, the liquid state polarisation in data set [2] (setting [3]) was determined as 34%.

In turn, `CC(C)CC(=O)[13C](=O)O` [^13C1-α-ketoisocaproic acid] came in with a solid state polarisation in data set [1] of 27%.

`CC(C)CC(=O)[13C](=O)[O-].[Na+]` [sodium ^13C1-α-ketoisocaproate]: the solid state polarisation result in data set [1] was “approximately 30%”. Besides, the liquid state polarisation in data set [2] (obtained from polarised 13C1-α-ketoisocaproic acid, 90 minutes DNP, dissolved in phosphate buffer/NaOH, pH 7.3, 50 mM) came to 25%; in data set [2] (setting [3]), 29%.
